In article PMC10714915:
Results are given in words; binding and its absence hold for the method and conditions named. In cells and extracts the contact can be indirect. Some binding calls cover weakened binding; strength is not graded here.

Chains of the proteins cited; added tags and fusions are not shown.
UniProt Q96LC9: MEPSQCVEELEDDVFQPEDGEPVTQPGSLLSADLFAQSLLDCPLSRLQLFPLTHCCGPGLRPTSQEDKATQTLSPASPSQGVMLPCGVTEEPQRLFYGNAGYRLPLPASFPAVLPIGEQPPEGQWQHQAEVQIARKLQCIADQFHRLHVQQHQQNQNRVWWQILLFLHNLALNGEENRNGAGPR

Experiments:
[1] = molecular target: BCL-2 modifying factor (BMF) (human (endogenous in BE(2)-C and SK-N-DZ)) (UniProt Q96LC9); test: co-IP; BMF immunoprecipitated from detached (suspension) BE(2)-C-shATF5 and SK-N-DZ-shATF5 cells with Dox (ATF5 knockdown, BMF induced); BCL-XL detected in the precipitate
[2] = molecular target: BCL-2 modifying factor (BMF) (human (endogenous in BE(2)-C and SK-N-DZ)) (UniProt Q96LC9); test: condition: only without Dox treatment (ATF5 not knocked down, BMF not induced); co-IP; BMF immunoprecipitated from detached (suspension) BE(2)-C-shATF5 and SK-N-DZ-shATF5 cells without Dox treatment; BCL-XL looked for in the precipitate

- binding [1]: binds
- binding [2]: no binding
Substance: BCL-XL (from UniProt Q07817-1 1-233)
